Measurements reported in the supplement of paper PMC8728848.
The list shows a part of the results.

Key:
Assay in all cases: glycan array binding signal (z-score within array); higher = stronger binding
Conditions in all cases: glycan notation: IUPAC condensed, linker removed
[1] = target: GlcNAc(b1-3)Gal(b1-4)GlcNAc(b1-3)Gal(b1-4)GlcNAc(b1-3)Gal(b1-4)GlcNAc(b1-3)Gal(b1-4)GlcNAc(b1-2)[GlcNAc(b1-3)Gal(b1-4)GlcNAc(b1-3)Gal(b1-4)GlcNAc(b1-3)Gal(b1-4)GlcNAc(b1-3)Gal(b1-4)GlcNAc(b1-6)]Man(a1-6)[GlcNAc(b1-3)Gal(b1-4)GlcNAc(b1-3)Gal(b1-4)GlcNAc(b1-3)Gal(b1-4)GlcNAc(b1-3)Gal(b1-4)GlcNAc(b1-2)Man(a1-3)]Man(b1-4)GlcNAc(b1-4)[Fuc(a1-6)]GlcNAc
Procedure, shortened: (§1)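 Glycan array data came from 3228 arrays in the Consortium for Functional Glycomics database, and only arrays with an available protein sequence were kept. Glycan names were put into IUPAC-condensed notation, and columns mapping to the same glycan were averaged. The binding signal is a within-array Z-score, averaged across arrays of one protein sequence run at different concentrations or buffers and across linkers. A negative Z-score can be read as non-binding.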

[2] = target: GlcNAc(b1-3)Gal(b1-4)GlcNAc(b1-3)Gal(b1-4)GlcNAc(b1-3)GalNAc
Procedure, shortened: as §1

[3] = target: GlcNAc(b1-3)Gal(b1-4)GlcNAc(b1-3)GalNAc
Procedure, shortened: as §1

[4] = target: GlcNAc(b1-3)Gal(b1-4)GlcNAc(b1-3)[GlcNAc(b1-3)Gal(b1-4)GlcNAc(b1-3)]GalNAc
Procedure, shortened: as §1

[5] = target: GlcNAc(b1-3)Gal(b1-4)GlcNAc(b1-6)[Gal(b1-3)]GalNAc
Procedure, shortened: as §1

[6] = target: GlcNAc(b1-3)Gal(b1-4)GlcNAc(b1-6)[GlcNAc(b1-3)Gal(b1-3)]GalNAc
Procedure, shortened: as §1

[7] = target: GlcNAc(b1-3)Gal(b1-4)GlcNAc(b1-6)[GlcNAc(b1-3)]Gal(b1-4)GlcNAc
Procedure, shortened: as §1

GlcNAc(b1-3)GalNAc = target: GlcNAc(b1-3)GalNAc
Procedure, shortened: as §1

GlcNAc(b1-3)Man = target: GlcNAc(b1-3)Man
Procedure, shortened: as §1

[8] = target: GlcNAc(b1-3)[GlcNAc(b1-4)][GlcNAc(b1-6)]GlcNAc
Procedure, shortened: as §1

[9] = target: GlcNAc(b1-3)[GlcNAc(b1-6)]Gal(b1-4)GlcNAc
Procedure, shortened: as §1

[10] = target: GlcNAc(b1-3)[GlcNAc(b1-6)]GalNAc
Procedure, shortened: as §1

[11] = target: GlcNAc(b1-4)Gal(b1-4)GlcNAc
Procedure, shortened: as §1

GlcNAc(b1-4)GlcNAc = target: GlcNAc(b1-4)GlcNAc
Procedure, shortened: as §1

[12] = target: GlcNAc(b1-4)GlcNAc(b1-4)GlcNAc
Procedure, shortened: as §1

[13] = target: GlcNAc(b1-4)GlcNAc(b1-4)GlcNAc(b1-4)GlcNAc(b1-4)GlcNAc
Procedure, shortened: as §1

[14] = target: GlcNAc(b1-4)GlcNAc(b1-4)GlcNAc(b1-4)GlcNAc(b1-4)GlcNAc(b1-4)GlcNAc
Procedure, shortened: as §1

[15] = target: GlcNAc(b1-4)[GlcNAc(b1-6)]GalNAc
Procedure, shortened: as §1

[16] = target: GlcNAc(b1-6)Gal(b1-4)GlcNAc
Procedure, shortened: as §1

GlcNAc(b1-6)GalNAc = target: GlcNAc(b1-6)GalNAc
Procedure, shortened: as §1

[17] = target: GlcNAc6S(b1-3)Gal(b1-4)GlcNAc
Procedure, shortened: as §1

Kdn(a2-3)Gal(b1-3)GalNAc = target: Kdn(a2-3)Gal(b1-3)GalNAc
Procedure, shortened: as §1

Kdn(a2-3)Gal(b1-3)GlcNAc = target: Kdn(a2-3)Gal(b1-3)GlcNAc
Procedure, shortened: as §1

Kdn(a2-3)Gal(b1-4)Glc = target: Kdn(a2-3)Gal(b1-4)Glc
Procedure, shortened: as §1

Kdn(a2-3)Gal(b1-4)GlcNAc = target: Kdn(a2-3)Gal(b1-4)GlcNAc
Procedure, shortened: as §1

[18] = target: Kdn(a2-3)Gal(b1-4)[Fuc(a1-3)]GlcNAc
Procedure, shortened: as §1

Kdn(a2-6)Gal(b1-4)GlcNAc = target: Kdn(a2-6)Gal(b1-4)GlcNAc
Procedure, shortened: as §1

[19] = target: Man(a1-2)Man(a1-2)Man(a1-3)Man
Procedure, shortened: as §1

[20] = target: Man(a1-2)Man(a1-2)Man(a1-6)[Man(a1-3)]Man
Procedure, shortened: as §1

Man(a1-2)Man(a1-3)Man = target: Man(a1-2)Man(a1-3)Man
Procedure, shortened: as §1

B1: R2-fiber (Pseudomonas aeruginosa), Q9S576 (protein)
chain: HHHHHHKVAKDLVVSLAYQVRTEDGVLVDESPVSAPLDYLHGHGSLISGLETALEGHEVGDKFDVAVGANDAYGQYDENLVQRVPKDVFMGVDELQVGMRFLAETDQGPVPVEITAVEDDHVVVDGNHMLAGQNLKFNVEVVAIREATEEELAHGHVHGAHDHHHDHDHDGCCGGHGHDHGHEHGGEGCCGGKGNGGCGCHENLYFQGVTAGMALAATDIPGLDASKLVSGVLAEQRLPVFARGLATAVSNSSDPNTATVPLMLTNHANGPVAGRYFYIQSMFYPDQNGNASQIATSYNATSEMYVRVSYAANPSIREWLPWQRCDIGGSFTKEADGELPGGVNLDSMVTSGWWSQSFTAQAASGANYPIVRAGLLHVYAASSNFIYQTYQAYDGESFYFRCRHSNTWFPWRRMWHGGDFNPSDYLLKSGFYWNALPGKPATFPPSAHNHDVGQLTSGILPLARGGVGSNTAAGARSTIGAGVPATASLGASGWWRDNDTGLIRQWGQVTCPADADASITFPIPFPTLCLGGYANQTSAFHPGTDASTGFRGATTTTAVIRNGYFAQAVLSWEAFGR
glycan array binding signal (z-score) [1]: 0.287
glycan array binding signal (z-score) [2]: -0.639
glycan array binding signal (z-score) [3]: -0.486
glycan array binding signal (z-score) [4]: -0.041
glycan array binding signal (z-score) [5]: 0.122
glycan array binding signal (z-score) [6]: 1.3
glycan array binding signal (z-score) [7]: -0.821
glycan array binding signal (z-score) (GlcNAc(b1-3)GalNAc): -0.184
glycan array binding signal (z-score) (GlcNAc(b1-3)Man): -0.043
glycan array binding signal (z-score) [8]: -0.221
glycan array binding signal (z-score) [9]: -0.419
glycan array binding signal (z-score) [10]: 0.283
glycan array binding signal (z-score) [11]: -0.614
glycan array binding signal (z-score) (GlcNAc(b1-4)GlcNAc): 0.198
glycan array binding signal (z-score) [12]: 0.32
glycan array binding signal (z-score) [13]: -0.085
glycan array binding signal (z-score) [14]: -0.525
glycan array binding signal (z-score) [15]: -0.684
glycan array binding signal (z-score) [16]: -0.379
glycan array binding signal (z-score) (GlcNAc(b1-6)GalNAc): -0.326
glycan array binding signal (z-score) [17]: -0.144
glycan array binding signal (z-score) (Kdn(a2-3)Gal(b1-3)GalNAc): 0.063
glycan array binding signal (z-score) (Kdn(a2-3)Gal(b1-3)GlcNAc): -0.223
glycan array binding signal (z-score) (Kdn(a2-3)Gal(b1-4)Glc): -0.616
glycan array binding signal (z-score) (Kdn(a2-3)Gal(b1-4)GlcNAc): -0.058
glycan array binding signal (z-score) [18]: 0.717
glycan array binding signal (z-score) (Kdn(a2-6)Gal(b1-4)GlcNAc): -0.655
glycan array binding signal (z-score) [19]: 1.05
glycan array binding signal (z-score) [20]: 0.479
glycan array binding signal (z-score) (Man(a1-2)Man(a1-3)Man): 0.221
